Measurements taken from PubChem BioAssay AID504834 (National Center for Advancing Translational Sciences (NCATS), 2011).
The whole screen tested about 320,000 compounds, of which about 22,000 (6.9%) were called active. This list was built around the results that the source calls inconclusive (neither active nor inactive); the mix of calls is not that of the screen. Calls follow the shape of the dose curve; as a rule, active = well fitted inhibition curve with a large enough effect; inconclusive = small, poorly fitted or top-dose-only effect, or another doubt; inactive = no such curve, though single readings can be large or run the other way. Potencies of inconclusive entries are doubtful fits and often do not repeat.

Experiment: Primary qHTS for delayed death inhibitors of the malarial parasite plastid, 96 hour incubation
Settings: P. falciparum luciferase reporter growth; series mostly up to 28.7 µM; activity change, negative = inhibition: at the top concentration
How it was run: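 P. falciparum expressing integrated firefly luciferase grown in erythrocytes (2% hematocrit, 0.05% parasitemia final) with compounds for 96 hours at 37 C, 5% CO2. Growth inhibition read as loss of luminescence after adding luciferase detection reagent.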
% is scaled to controls: 0 for no effect and ±100 for the full control effect; potency is read from the fitted curve at half-maximal effect.

| Compound | Potency | activity change, negative = inhibition |
| --- | --- | --- |
| COc1ccc(OC)c(NC(=O)c2cccc(C)c2[N+](=O)[O-])c1 | active: 1.65 µM |  |
| COc1ccc(C)cc1NC(=O)CSc1nnc2ccc(-c3ccccn3)nn12 | inconclusive: 18.5 µM [inhibitor, single point] |  |
| N#Cc1ccc(OCC(=O)N/N=C/C2CC=CCC2)cc1 (configuration not stated) |  | inactive: -18.6% |
| CC1(C)CC(=O)C2=C(C1)OC1=C(C(=O)CC(C)(C)C1)C2(C)C | inconclusive: 16.5 µM [inhibitor, single point] |  |
| Cc1ccnc(NC(=O)c2cccc([N+](=O)[O-])c2C)c1 |  | inactive: 121% |
| CCn1ccnc1CN(C)Cc1nc(Cc2cccc(C(F)(F)F)c2)no1 | inconclusive: 11.7 µM [inhibitor, single point] |  |
| COc1ccc(NC(=O)CCn2c(=S)[nH]c3ccccc3c2=O)cc1 | inconclusive: 11.7 µM [inhibitor, single point] |  |
| CC/C(=N/OC(=O)c1cccc(C)c1)C(=O)c1cccs1 | inconclusive: 8.28 µM [inhibitor, partial curve, poor fit] |  |
| O=C(NNc1ncnc2c1cnn2-c1ccccc1)c1ccco1 | inconclusive: 10.4 µM [inhibitor, single point] |  |
| CCC(=O)N1c2ccccc2C(N(C(C)=O)c2ccccc2)CC1C (configuration not stated) | inconclusive: 11.7 µM [inhibitor, single point] |  |
| CCOc1cc(CNCc2ccncc2)cc(Br)c1OCc1ccc(F)cc1 | inconclusive: 18.5 µM [inhibitor, single point] |  |
| Cc1cc(C)c(C#N)c(N2CCN(c3ccccc3)CC2)n1 |  | inactive: 33.7% |
| COc1cccc(/C=N/n2c(-c3cccs3)n[nH]c2=S)c1 |  | inactive: 45.3% |
| O=C(CN1CCCC1=O)N1CCOCC1 | inconclusive: 2.33 µM [inhibitor, full curve] |  |
| O=C(CNC(=O)[C@@H]1Cc2ccccc2CN1)Nc1ccc2c(c1)OCCO2 |  | inactive: 53.1% |
| Cc1cccc(Nc2cc(C)nc3ccccc23)c1 | inconclusive: 11.7 µM [inhibitor, single point] |  |
| O=C(COC(=O)CCCN=C1NS(=O)(=O)c2ccccc21)NNC(=O)c1ccccc1 |  | inactive: 23.3% |
| CN(CCOCCOc1ccc(F)cc1)Cc1ccccc1 | inconclusive: 11.7 µM [inhibitor, single point] |  |
| Cc1ccccc1C(=O)N1N=C(c2ccc(NS(C)(=O)=O)cc2)CC1c1cccs1 (configuration not stated) | active: 1.65 µM |  |
| CCN(CC)C(=O)CSc1nnnn1-c1ccc(F)c(Cl)c1 |  | inactive: 1.33% |
| Cc1ccc(-n2c(N)c(C#N)c(-c3ccc(Cl)cc3)c(C#N)c2=O)cc1 | inconclusive: 16.5 µM [inhibitor, single point] |  |
| Cc1ccc(NC(=O)CSCC(=O)NCCc2ccccn2)c(C)c1 |  | inactive: 26.7% |
| O=C(c1ccc(S(=O)(=O)N2CCCC2)cc1)N1CCCc2ccccc21 |  | inactive: -6.57% |
| O=C(N=C1SCC(=O)N1c1ccccc1Cl)c1ccccc1 | inconclusive: 18.5 µM [inhibitor, single point] |  |

Copied from the list.
In activity change, negative = inhibition, Cc1ccnc(NC(=O)c2cccc([N+](=O)[O-])c2C)c1 reads inactive: 121%
In Potency, CC/C(=N/OC(=O)c1cccc(C)c1)C(=O)c1cccs1 reads inconclusive: 8.28 µM [inhibitor, partial curve, poor fit]

Later entries

| Compound | Potency | activity change, negative = inhibition |
| --- | --- | --- |
| Cc1ccc(S(=O)(=O)N(CC(=O)NCCC2=CCCCC2)Cc2ccccc2F)cc1 | active: 11.7 µM |  |
| CC(C)c1ccc(C2C3=C(CC(C)(C)CC3=O)NC3=C2C(=O)c2ccccc23)cc1 (configuration not stated) | active: 6.57 µM |  |
| COc1cc(/C=N/NC(N)=S)ccc1OCc1ccc(C)cc1 | inconclusive: 11.7 µM [inhibitor, partial curve, poor fit] |  |
| NNc1nc(-c2ccccc2Cl)c2cc(Br)ccc2n1 | inconclusive: 18.5 µM [inhibitor, single point] |  |
| CC1C(=O)CC(c2ccco2)NC1c1ccco1 (configuration not stated) | inconclusive: 18.5 µM [inhibitor, single point] |  |
| COC(=O)CC1SC(=O)NC1=Nc1ccc(C)cc1 (configuration not stated) | inconclusive: 0.465 µM [inhibitor, partial curve, poor fit] |  |
| Cc1ccc([N+](=O)[O-])cc1S(=O)(=O)NCC1COc2ccccc2O1 (configuration not stated) | inconclusive: 18.5 µM [inhibitor, single point] |  |
| COc1ccc(C2(c3ccc(OC)cc3)NC(=O)N(CC(=O)Nc3ccc(OC)c(OC)c3)C2=O)cc1 | inconclusive: 11.7 µM [inhibitor, single point] |  |
| Cc1cc(OCc2cc(C(=O)NCc3cc(C(C)C)no3)no2)cc(C)c1Cl | inconclusive: 10.4 µM [inhibitor, single point] |  |
| CCn1c(=O)c(C(=O)NCCc2ccccc2)c(O)c2ccccc21 |  | inactive: 12.8% |
| O=C(Cc1c[nH]c2ccccc12)N/N=C/c1ccccc1O |  | inactive: -20.1% |
| O=C(O)c1ccc2c(c1)CCC2 | inconclusive: 4.15 µM [inhibitor, full curve, poor fit] |  |
| O=C(NCc1ccccn1)c1ccccc1OCc1ccc(Cl)cc1Cl | active: 14.7 µM |  |
| Cc1cccc(N2C(=O)c3cccc4cccc(c34)C2=O)c1 | inconclusive: 16.5 µM [inhibitor, single point] |  |
| CCN(C(=O)COC(=O)c1c(-c2ccccc2)noc1C)c1c(N)n(Cc2ccccc2)c(=O)[nH]c1=O | inconclusive: 1.65 µM [inhibitor, full curve] |  |
| O=C(CNC(=O)c1ccc(Br)o1)Nc1ccc(F)c(S(=O)(=O)N2CCOCC2)c1 | inconclusive: 11.7 µM [inhibitor, partial curve, poor fit] |  |
| COc1ccc(CCN(C)C(=O)C2CCN(Cc3cccc(OC)c3OC)CC2)cc1OC |  | inactive: 0% |
| O=C(N/C(=C/c1ccco1)C(=O)N1CCCCC1)c1cccs1 |  | inactive: -13.1% |
| Cc1cccc(CN2CCc3c([nH]c4ccccc34)C2C(C)(C)C)n1 (configuration not stated) | inconclusive: 10.4 µM [inhibitor, single point] |  |
| COc1ccc(C23CC4CC(CC(C4)C2)C3)cc1C(=O)NCCN(C)C | active: 11.7 µM |  |
| O=C(CSc1nc2ccccc2c(=O)n1-c1ccccc1)NCc1ccc2c(c1)OCO2 | inconclusive: 0.104 µM [inhibitor, full curve, poor fit] |  |
| O=C(NCCN1CCOCC1)c1cccc(S(=O)(=O)Nc2ccc(Br)cc2)c1 |  | inactive: -7.05% |
| Cc1ccc(-c2[nH]ncc2C(=O)c2cccc(F)c2)c(O)c1 | inconclusive: 18.5 µM [inhibitor, single point] |  |
